Reference: patent US20220326218A1, “COMPOSITION AND METHOD FOR INHIBITING BORC COMPLEX TO TREAT CANCERS WITH NF1 DEFICIENCY AND DYSREGULATED RAS SIGNALING” (THE TRUSTEES OF DARTMOUTH COLLEGE, priority 2019, published 2022)

Tested on: U87-MG cells
Test: Cellular thermal shift assay (CETSA) with TMT LC-MS/MS
Type: cell-based, human

Cn1cnnc1S/C=C/C(=O)c1ccc(F)cc1 [Y102]
proteins with a statistically significant difference of melting points versus DMSO (ΔTm) (2 μM, 2 h, p-value<0.100): 19 | potential targets identified on comparison of the two proteomics approaches (CETSA and click chemistry-enriched pulldown): the BORC complex, determined by the identification of two subunits BORCS6 and BORCS7, and the cell cycle regulator CDKN1A/p21
